Paper PMC5432342
Results are given in words; binding and its absence hold for the method and conditions named. Binding seen in cells or lysates may run through a third protein. Some entries that bind do so weakly or less than the wild type. Where a sequence is shown, tags or fusion partners need not be part of it.

By UniProt entry, the sequences of proteins in these tests, tags left out.
UniProt P38398: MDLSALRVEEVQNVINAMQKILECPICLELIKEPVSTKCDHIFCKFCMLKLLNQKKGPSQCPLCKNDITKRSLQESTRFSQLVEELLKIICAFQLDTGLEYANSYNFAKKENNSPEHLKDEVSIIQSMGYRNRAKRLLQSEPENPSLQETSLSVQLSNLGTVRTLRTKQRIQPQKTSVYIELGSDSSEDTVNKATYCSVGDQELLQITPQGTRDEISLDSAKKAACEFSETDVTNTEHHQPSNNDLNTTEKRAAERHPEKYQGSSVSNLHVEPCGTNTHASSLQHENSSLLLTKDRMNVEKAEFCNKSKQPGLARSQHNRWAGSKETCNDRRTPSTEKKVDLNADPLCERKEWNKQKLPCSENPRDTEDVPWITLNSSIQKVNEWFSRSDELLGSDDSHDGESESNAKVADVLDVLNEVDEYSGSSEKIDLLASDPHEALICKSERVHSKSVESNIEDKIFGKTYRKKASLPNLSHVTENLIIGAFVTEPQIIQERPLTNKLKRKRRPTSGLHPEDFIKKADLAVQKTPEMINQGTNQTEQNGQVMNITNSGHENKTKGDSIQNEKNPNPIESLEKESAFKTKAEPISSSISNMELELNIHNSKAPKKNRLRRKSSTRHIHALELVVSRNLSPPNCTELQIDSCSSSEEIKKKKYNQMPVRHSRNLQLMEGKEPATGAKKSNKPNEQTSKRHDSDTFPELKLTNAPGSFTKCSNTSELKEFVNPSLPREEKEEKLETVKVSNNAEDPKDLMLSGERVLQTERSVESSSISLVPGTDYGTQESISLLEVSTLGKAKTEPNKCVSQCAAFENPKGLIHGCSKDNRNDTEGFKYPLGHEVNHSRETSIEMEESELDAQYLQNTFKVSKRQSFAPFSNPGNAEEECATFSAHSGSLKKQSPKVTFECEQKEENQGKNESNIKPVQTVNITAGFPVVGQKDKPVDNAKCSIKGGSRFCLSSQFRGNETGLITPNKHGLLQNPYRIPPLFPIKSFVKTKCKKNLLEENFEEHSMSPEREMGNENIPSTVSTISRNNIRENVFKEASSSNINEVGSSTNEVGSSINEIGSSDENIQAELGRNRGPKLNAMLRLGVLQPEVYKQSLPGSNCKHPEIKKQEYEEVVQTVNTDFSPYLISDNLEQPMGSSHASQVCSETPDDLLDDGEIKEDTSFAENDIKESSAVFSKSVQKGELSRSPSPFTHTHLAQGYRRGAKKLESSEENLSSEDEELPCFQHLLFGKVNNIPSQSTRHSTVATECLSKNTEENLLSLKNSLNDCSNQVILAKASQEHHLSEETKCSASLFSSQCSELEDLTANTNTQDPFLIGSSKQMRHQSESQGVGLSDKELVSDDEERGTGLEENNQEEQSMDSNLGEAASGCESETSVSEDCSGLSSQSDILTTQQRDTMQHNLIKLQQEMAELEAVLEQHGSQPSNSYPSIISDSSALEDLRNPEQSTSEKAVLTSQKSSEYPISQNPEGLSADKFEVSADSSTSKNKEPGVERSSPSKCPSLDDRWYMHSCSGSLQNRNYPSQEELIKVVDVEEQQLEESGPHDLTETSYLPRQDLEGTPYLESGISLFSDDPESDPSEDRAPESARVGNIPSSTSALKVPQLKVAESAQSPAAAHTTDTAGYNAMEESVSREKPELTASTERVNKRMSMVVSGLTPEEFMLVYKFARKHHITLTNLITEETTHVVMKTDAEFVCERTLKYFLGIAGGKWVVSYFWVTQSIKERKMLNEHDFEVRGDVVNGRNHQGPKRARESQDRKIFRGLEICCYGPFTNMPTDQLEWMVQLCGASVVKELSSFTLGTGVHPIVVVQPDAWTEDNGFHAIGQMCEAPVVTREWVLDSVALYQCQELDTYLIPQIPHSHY

Molecular target: hBRCA1 (human) (UniProt P38398)
Test: co-IP; Flag-hSTIL (or its deletion mutants) and hBRCA1 co-transfected, lysed after 48 h in 10 mM Tris pH 7.5, 150 mM NaCl, 0.5% Triton-X100; precipitated with anti-BRCA1 or anti-STIL antibody overnight at 4°C and protein A/G agarose beads; beads-only control; western blot with anti-BRCA1 and anti-STIL

binding: binds
B1: Flag-hSTIL (SCL TAL1 Interrupting Locus protein) (protein, UniProt Q15468 1-1287)
chain: MEPIYPFARPQMNTRFPSSRMVPFHFPPSKCALWNPTPTGDFIYLHLSYYRNPKLVVTEKTIRLAYRHAKQNKKNSSCFLLGSLTADEDEEGVTLTVDRFDPGREVPECLEITPTASLPGDFLIPCKVHTQELCSREMIVHSVDDFSSALKALQCHICSKDSLDCGKLLSLRVHITSRESLDSVEFDLHWAAVTLANNFKCTPVKPIPIIPTALARNLSSNLNISQVQGTYKYGYLTMDETRKLLLLLESDPKVYSLPLVGIWLSGITHIYSPQVWACCLRYIFNSSVQERVFSESGNFIIVLYSMTHKEPEFYECFPCDGKIPDFRFQLLTSKETLHLFKNVEPPDKNPIRCELSAESQNAETEFFSKASKNFSIKRSSQKLSSGKMPIHDHDSGVEDEDFSPRPIPSPHPVSQKISKIQPSVPELSLVLDGNFIESNPLPTPLEMVNNENPPLINHLEHLKPLQPQLYDEKHSPEVEAGEPSLRGIPNQLNQDKPALLRHCKVRQPPAYKKGNPHTRNSIKPSSHNGPSHDIFEKLQTVSAGNVQNEEYPIRPSTLNSRQSSLAPQSQPHDFVFSPHNSGRPMELQIPTPPLPSYCSTNVCRCCQHHSHIQYSPLNSWQGANTVGSIQDVQSEALQKHSLFHPSGCPALYCNAFCSSSSPIALRPQGDMGSCSPHSNIEPSPVARPPSHMDLCNPQPCTVCMHTPKTESDNGMMGLSPDAYRFLTEQDRQLRLLQAQIQRLLEAQSLMPCSPKTTAVEDTVQAGRQMELVSVEAQSSPGLHMRKGVSIAVSTGASLFWNAAGEDQEPDSQMKQDDTKISSEDMNFSVDINNEVTSLPGSASSLKAVDIPSFEESNIAVEEEFNQPLSVSNSSLVVRKEPDVPVFFPSGQLAESVSMCLQTGPTGGASNNSETSEEPKIEHVMQPLLHQPSDNQKIYQDLLGQVNHLLNSSSKETEQPSTKAVIISHECTRTQNVYHTKKKTHHSRLVDKDCVLNATLKQLRSLGVKIDSPTKVKKNAHNVDHASVLACISPEAVISGLNCMSFANVGMSGLSPNGVDLSMEANAIALKYLNENQLSQLSVTRSNQNNCDPFSLLHINTDRSTVGLSLISPNNMSFATKKYMKRYGLLQSSDNSEDEEEPPDNADSKSEYLLNQNLRSIPEQLGGQKEPSKNDHEIINCSNCESVGTNADTPVLRNITNEVLQTKAKQQLTEKPAFLVKNLKPSPAVNLRTGKAEFTQHPEKENEGDITIFPESLQPSETLKQMNSMNSVGTFLDVKRLRQLPKLF
